# Experimental data: publication PMC7518283
# Sequences of proteins named here, by UniProt entry; tags and fusion partners are left off.
# UniProt P20248: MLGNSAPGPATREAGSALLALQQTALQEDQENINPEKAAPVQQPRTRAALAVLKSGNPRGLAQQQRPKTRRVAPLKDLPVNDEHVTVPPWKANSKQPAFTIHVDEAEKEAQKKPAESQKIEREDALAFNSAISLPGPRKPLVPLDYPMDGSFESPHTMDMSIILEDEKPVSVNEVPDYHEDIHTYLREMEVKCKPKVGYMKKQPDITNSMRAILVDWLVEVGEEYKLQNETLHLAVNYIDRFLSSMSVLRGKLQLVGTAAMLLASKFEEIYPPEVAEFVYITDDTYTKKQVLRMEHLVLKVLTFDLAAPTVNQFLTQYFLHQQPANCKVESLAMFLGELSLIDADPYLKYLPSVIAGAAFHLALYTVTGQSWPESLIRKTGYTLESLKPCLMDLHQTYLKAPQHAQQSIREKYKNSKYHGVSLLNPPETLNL
# UniProt P16788: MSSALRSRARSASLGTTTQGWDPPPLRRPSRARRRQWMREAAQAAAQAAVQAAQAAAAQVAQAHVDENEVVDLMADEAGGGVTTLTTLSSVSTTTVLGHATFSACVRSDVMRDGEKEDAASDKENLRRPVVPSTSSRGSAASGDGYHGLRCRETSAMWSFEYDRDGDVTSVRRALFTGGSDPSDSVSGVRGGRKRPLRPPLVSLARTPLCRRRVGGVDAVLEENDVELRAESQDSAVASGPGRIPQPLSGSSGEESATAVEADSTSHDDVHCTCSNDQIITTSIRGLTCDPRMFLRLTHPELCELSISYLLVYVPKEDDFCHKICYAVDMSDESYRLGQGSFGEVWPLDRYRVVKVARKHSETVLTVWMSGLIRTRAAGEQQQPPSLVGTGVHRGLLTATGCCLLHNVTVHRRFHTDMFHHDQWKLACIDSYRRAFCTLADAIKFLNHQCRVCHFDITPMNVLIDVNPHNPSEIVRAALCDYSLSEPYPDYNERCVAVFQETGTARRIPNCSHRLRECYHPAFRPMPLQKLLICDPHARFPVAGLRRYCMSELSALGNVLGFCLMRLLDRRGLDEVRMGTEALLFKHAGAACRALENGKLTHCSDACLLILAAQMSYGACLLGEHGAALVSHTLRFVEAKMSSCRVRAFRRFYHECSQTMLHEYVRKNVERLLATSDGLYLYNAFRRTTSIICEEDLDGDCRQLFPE
# UniProt P35226: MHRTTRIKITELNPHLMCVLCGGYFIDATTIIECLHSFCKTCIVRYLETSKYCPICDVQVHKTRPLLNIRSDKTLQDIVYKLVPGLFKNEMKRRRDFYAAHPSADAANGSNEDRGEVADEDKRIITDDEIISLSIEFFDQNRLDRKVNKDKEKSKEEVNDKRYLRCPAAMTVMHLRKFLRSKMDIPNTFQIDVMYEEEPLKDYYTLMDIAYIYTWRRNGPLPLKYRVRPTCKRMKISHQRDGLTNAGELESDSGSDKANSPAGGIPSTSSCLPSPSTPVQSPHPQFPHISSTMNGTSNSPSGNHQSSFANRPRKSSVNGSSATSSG
# UniProt Q13263: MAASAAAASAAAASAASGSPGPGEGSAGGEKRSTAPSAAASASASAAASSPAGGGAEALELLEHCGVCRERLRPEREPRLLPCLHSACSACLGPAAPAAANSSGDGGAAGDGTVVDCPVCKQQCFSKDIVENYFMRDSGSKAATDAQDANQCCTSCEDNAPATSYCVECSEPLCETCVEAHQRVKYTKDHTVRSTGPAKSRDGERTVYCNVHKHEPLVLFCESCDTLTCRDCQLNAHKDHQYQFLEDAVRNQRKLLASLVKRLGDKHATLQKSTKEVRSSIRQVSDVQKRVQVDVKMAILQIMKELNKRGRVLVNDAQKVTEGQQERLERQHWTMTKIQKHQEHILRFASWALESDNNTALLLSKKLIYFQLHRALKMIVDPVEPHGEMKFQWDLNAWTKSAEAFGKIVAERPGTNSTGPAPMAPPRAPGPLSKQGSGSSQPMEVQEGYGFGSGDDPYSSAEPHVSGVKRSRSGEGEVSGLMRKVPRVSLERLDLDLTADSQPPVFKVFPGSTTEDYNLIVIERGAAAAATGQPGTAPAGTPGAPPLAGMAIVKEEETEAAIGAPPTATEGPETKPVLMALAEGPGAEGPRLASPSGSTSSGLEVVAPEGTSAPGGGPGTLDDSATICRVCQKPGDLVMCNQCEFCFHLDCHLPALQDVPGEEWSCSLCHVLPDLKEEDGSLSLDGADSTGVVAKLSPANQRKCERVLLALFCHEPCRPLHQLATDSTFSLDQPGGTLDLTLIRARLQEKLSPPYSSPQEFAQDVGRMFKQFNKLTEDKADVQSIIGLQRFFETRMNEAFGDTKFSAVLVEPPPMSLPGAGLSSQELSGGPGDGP
# UniProt O43791: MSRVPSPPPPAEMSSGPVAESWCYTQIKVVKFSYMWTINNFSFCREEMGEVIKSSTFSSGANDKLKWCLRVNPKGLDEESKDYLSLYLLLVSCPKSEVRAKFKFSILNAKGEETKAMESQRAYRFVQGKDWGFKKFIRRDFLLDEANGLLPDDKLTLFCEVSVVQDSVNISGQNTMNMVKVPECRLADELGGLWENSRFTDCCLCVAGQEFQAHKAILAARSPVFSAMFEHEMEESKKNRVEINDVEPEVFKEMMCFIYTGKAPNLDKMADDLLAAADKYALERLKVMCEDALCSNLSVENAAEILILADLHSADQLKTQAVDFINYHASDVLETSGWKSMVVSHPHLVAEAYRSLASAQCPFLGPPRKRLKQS
# These are yes or no findings as the source states them, for the method shown. In cells and extracts the contact can be indirect. Some binding calls cover weakened binding; strength is not graded here.
# Experiments:
# [1] = molecular target: Cyclin A (human (endogenous in HEK-293T)) (UniProt P20248); experiment: co-IP
# [2] = molecular target: HHV5-UL97 (human cytomegalovirus (human herpesvirus 5, HHV5)) (UniProt P16788); experiment: co-IP; co-immunoprecipitation experiments with pUL97 (Supplementary Fig. 3c–f); bait not given
Substance,binding [1],binding [2]
HHV5-UL97 (from UniProt P16788 1-707) (enzyme),binds,
BMI1 (from UniProt P35226 1-326),,binds
TRIM28 (from UniProt Q13263 1-835),,binds
SPOP (from UniProt O43791 1-374),,binds
